# Source: patent US20140094424A1, “MICROBICIDAL COMPOSITIONS AND METHODS OF PRODUCTION USE THEREOF” (priority 2011, published 2014)
# Experiments:
# Test in all cases: MBC (minimum bactericidal concentration) test in Wash NEXT reagent
# Type in all cases: cell-based
# [1] = system: Aspergillus glaucus- DMO (Q)
# Protocol: (§1) The stock organisms were thawed and subbed prior to beginning the MBC test. Molds were subbed to SDA plates one week before, and the bacteria were subbed to TAT agar plates 24 hours prior to the start of the test. All plates were incubated at 32 degrees C.
# (§2) For the molds, each organism was inoculated into 40 ml sterile saline in a centrifuge tube to create a density of MacFarland #5. Two serial dilutions of 1:100 were then made, resulting in 10^−2 and 10^−4 concentrations. Each dilution was vortexed before it was sampled, and sterile Eppendorf pipette tips were used to make each transfer. The 10^−4 dilution was spiral plated to yield the initial inoculum concentration.
# MBC trays were set up with the prepared test reagent. Using a Matrix pipettor, 100 μl aliquots of reagent were distributed into the wells, diluting the amount of preservative from 100% to 10% increments, using unpreserved reagent as the diluent. In one row, 100% non-preserved reagent acted as a positive control and served as a benchmark for a full mat of growth. In well #12H, 100 μl unpreserved reagent was pipetted, and this well was not inoculated with organisms, as it served as the negative control. Once all of the trays were prepared, the prepared bacteria/mold suspensions were poured into the MBC inoculating trays. These were placed onto the reagent trays, and 0.01 ml inoculum was introduced into the 100 μl of reagent in each well.
# This was done by dipping a sterile cotton swab into each well, and absorbing all of the liquid in the well. The swab was rolled onto a TAT agar plate ensuring that the entire swab touches the agar. Plates ware incubated at 32 degrees C. for 48 hours to 7 days, depending on the organism. Observations for growth were performed by a scoring matrix using + for a full mat, +/− for some growth, a numerical value for an actual colony count, and—for no growth.
# Below are tables that contain the data obtained in Example 1. The MBC test is scored by (+) indicating a full grown mat of organisms, equivalent to the organisms in the unpreserved reagent. (+/−) indicates there is some kill evident disturbing that mat or bringing the quantities down to an almost countable level. An actual number is the actual number of colonies growing at that concentration of preservative. (−) indicates no growth found. The MBC trays were stored at room temperature for the entire test.
# The materials and methods and analysis of the MBC test were the same as in Example 1.
# [2] = system: Penicillium notatum-KMO (R); parameters: key: number = actual colony count; + full mat, − no growth
# Protocol: as §1, §2
# (§3) MBC trays were set up with the prepared test reagent. Using a Matrix pipettor, 100 μl aliquots of reagent were distributed into the wells, diluting the amount of preservative from 100% to 10% increments, using unpreserved reagent as the diluent. In one row, 100% non-preserved reagent acted as a positive control and served as a benchmark for a full mat of growth. […]
# (§4) Below are tables that contain the data obtained in Example 1. The MBC test is scored by (+) indicating a full grown mat of organisms, equivalent to the organisms in the unpreserved reagent. (+/−) indicates there is some kill evident disturbing that mat or bringing the quantities down to an almost countable level. […]
# Pseudomonas putida (K) = settings: 50% preservative, 48 hour
# Protocol: as §1
# as §2, with “Each bacterial” for “For the molds, each”, “#1.” for “#5.”
# as §3, §4
smiles,measurement,setting,value
"Cc1cc(NS(=O)(=O)c2ccc(N)cc2)no1 [Sulfamethoxazole, sulfamethoxazole]",MBC test growth score,"[1]; 10% preservative, 8 hour",+
same,MBC test growth score,"[1]; 10% preservative, 24 hour",+
same,MBC test growth score,"[1]; 10% preservative, 48 hour",+/−
same,MBC test growth score,"[1]; 10% preservative, 72 hour",+/−
same,MBC test growth score,"[1]; 10% preservative, 7 day",+/−
same,MBC test growth score,"[1]; 10% preservative, 14 day",+/−
same,MBC test growth score,"[1]; 20% preservative, 8 hour",+
same,MBC test growth score,"[1]; 20% preservative, 24 hour",+
same,MBC test growth score,"[1]; 20% preservative, 48 hour",+/−
same,MBC test growth score,"[1]; 20% preservative, 72 hour",+/−
same,MBC test growth score,"[1]; 20% preservative, 7 day",+/−
same,MBC test growth score,"[1]; 20% preservative, 14 day",+/−
same,MBC test growth score,"[1]; 30% preservative, 8 hour",+
same,MBC test growth score,"[1]; 30% preservative, 24 hour",+
same,MBC test growth score,"[1]; 30% preservative, 48 hour",+/−
same,MBC test growth score,"[1]; 30% preservative, 72 hour",+/−
same,MBC test growth score,"[1]; 30% preservative, 7 day",+/−
same,MBC test growth score,"[1]; 30% preservative, 14 day",+/−
same,MBC test growth score,"[1]; 40% preservative, 8 hour",+
same,MBC test growth score,"[1]; 40% preservative, 24 hour",+
same,MBC test growth score,"[1]; 40% preservative, 48 hour",+/−
same,MBC test growth score,"[1]; 40% preservative, 72 hour",+/−
same,MBC test growth score,"[1]; 40% preservative, 7 day",16
same,MBC test growth score,"[1]; 40% preservative, 14 day",12
same,MBC test growth score,"[1]; 50% preservative, 8 hour",+
same,MBC test growth score,"[1]; 50% preservative, 24 hour",+
same,MBC test growth score,"[1]; 50% preservative, 48 hour",+/−
same,MBC test growth score,"[1]; 50% preservative, 72 hour",+/−
same,MBC test growth score,"[1]; 50% preservative, 7 day",14
same,MBC test growth score,"[1]; 50% preservative, 14 day",11
same,MBC test growth score,"[1]; 60% preservative, 8 hour",+
same,MBC test growth score,"[1]; 60% preservative, 24 hour",+
same,MBC test growth score,"[1]; 60% preservative, 48 hour",+/−
same,MBC test growth score,"[1]; 60% preservative, 72 hour",+/−
same,MBC test growth score,"[1]; 60% preservative, 7 day",12
same,MBC test growth score,"[1]; 60% preservative, 14 day",10
same,MBC test growth score,"[1]; 70% preservative, 8 hour",+
same,MBC test growth score,"[1]; 70% preservative, 24 hour",+
same,MBC test growth score,"[1]; 70% preservative, 48 hour",+/−
same,MBC test growth score,"[1]; 70% preservative, 72 hour",23
same,MBC test growth score,"[1]; 70% preservative, 7 day",8
same,MBC test growth score,"[1]; 70% preservative, 14 day",9
same,MBC test growth score,"[1]; 80% preservative, 8 hour",+
same,MBC test growth score,"[1]; 80% preservative, 24 hour",+
same,MBC test growth score,"[1]; 80% preservative, 48 hour",+/−
same,MBC test growth score,"[1]; 80% preservative, 72 hour",20
same,MBC test growth score,"[1]; 80% preservative, 7 day",7
same,MBC test growth score,"[1]; 80% preservative, 14 day",6
same,MBC test growth score,"[1]; 90% preservative, 8 hour",+
same,MBC test growth score,"[1]; 90% preservative, 24 hour",+
same,MBC test growth score,"[1]; 90% preservative, 48 hour",+/−
same,MBC test growth score,"[1]; 90% preservative, 72 hour",16
same,MBC test growth score,"[1]; 90% preservative, 7 day",6
same,MBC test growth score,"[1]; 100% preservative, 8 hour",+
same,MBC test growth score,"[1]; 100% preservative, 24 hour",+
same,MBC test growth score,"[1]; 100% preservative, 48 hour",+/−
same,MBC test growth score,"[1]; 100% preservative, 72 hour",12
same,MBC test growth score,"[1]; 100% preservative, 7 day",3
same,MBC test growth score,"[1]; 100% preservative, 14 day",2
same,MBC test growth score,"[2]; 60% preservative, 14 day",14
same,MBC test growth score,"[2]; 80% preservative, 72 hour",14
same,MBC test growth score,Pseudomonas putida (K),16
